Measurements from the supplement of paper PMC6414424.
± gives the standard deviation of the averaged measurements. The list shows a part of the results.

system: APPdp1-6 iPSC-derived neurons; test: pThr231Tau/total Tau ratio Z-score vs DMSO vehicle wells; higher = more pThr231Tau relative to total Tau; settings: 5 µM; treatment time 5 days

**Q.** With `O=C(O)Cc1ccccc1Nc1c(Cl)cccc1Cl` [Prestw-594] as the compound, how does the “pThr231Tau/total Tau ratio Z-score” value read?
**A.** -1.04 ± 0.42

**Q.** Which “pThr231Tau/total Tau ratio Z-score” value does the source give for `N=c1ccn2c(n1)O[C@H]1[C@H](O)[C@@H](CO)O[C@H]12` here?
**A.** -1.52 ± 0.63

**Q.** For `CC(=O)Oc1cc(C(F)(F)F)ccc1C(=O)O` [Prestw-528], which “pThr231Tau/total Tau ratio Z-score” value is on record?
**A.** -0.285 ± 0.64

**Q.** With `CS(=O)(=O)c1ccc([C@@H](O)[C@@H](CO)NC(=O)C(Cl)Cl)cc1` [Prestw-25] as the compound, how does the “pThr231Tau/total Tau ratio Z-score” value read?
**A.** -0.414 ± 0.82

**Q.** With `CC(C)Cc1ccc([C@H](C)C(=O)O)cc1` [Prestw-907] as the compound, how does the “pThr231Tau/total Tau ratio Z-score” value read?
**A.** 1.22 ± 1.8

**Q.** How did the “pThr231Tau/total Tau ratio Z-score” value turn out when `C[C@]12C=CC(=O)C=C1CC[C@@H]1[C@@H]2[C@@H](O)C[C@@]2(C)[C@H]1CC[C@]2(O)C(=O)CO` [Prestw-274] was run?
**A.** 0.424 ± 0.66

**Q.** How did the “pThr231Tau/total Tau ratio Z-score” value turn out when `O=c1[nH]cc(F)c(=O)[nH]1` [Prestw-1203] was run?
**A.** -0.111 ± 0.25

**Q.** `O=C1C(CC[S+]([O-])c2ccccc2)C(=O)N(c2ccccc2)N1c1ccccc1` (stereo not given) [Prestw-290] was tested. Which “pThr231Tau/total Tau ratio Z-score” value did it give?
**A.** 0.361 ± 0.44

**Q.** Which “pThr231Tau/total Tau ratio Z-score” value does the source give for `CC(=O)OC/C=C(C)/C=C/C=C(C)/C=C/C1=C(C)CCCC1(C)C` [RETINYL ACETATE    Therap cat: vitamin precursor] here?
**A.** -0.185 ± 0.55

**Q.** With `CC(=O)O[C@]1(C(C)=O)CC[C@H]2[C@@H]3C=C(C)C4=CC(=O)CC[C@@H]4[C@H]3CC[C@@]21C` [Prestw-1033] as the compound, how does the “pThr231Tau/total Tau ratio Z-score” value read?
**A.** -1.1 ± 0.82

**Q.** `COc1cc2nc(N3CCN(C(=O)C4CCCO4)CC3)nc(N)c2cc1OC` (stereo not given) [Prestw-751] was tested. Which “pThr231Tau/total Tau ratio Z-score” value did it give?
**A.** -1.4 ± 0.38

**Q.** For `Oc1ccc(O)cc1` [Arachidonate 12-Lipoxygenase inhibitor], which “pThr231Tau/total Tau ratio Z-score” value is on record?
**A.** 0.961 ± 0.69

**Q.** `CCCCC[C@H](O)/C=C/[C@@H]1[C@@H](C/C=C\CCCC(=O)O)[C@@H](O)C[C@H]1O.COC(N)(CO)CO` [Prestw-460] was tested. Which “pThr231Tau/total Tau ratio Z-score” value did it give?
**A.** 0.313 ± 0.85

**Q.** How did the “pThr231Tau/total Tau ratio Z-score” value turn out when `CC1CCC(NC(=O)N(CCCl)N=O)CC1` (stereo not given) [SEMUSTINE    Therap cat: antineoplastic] was run?
**A.** 0.713 ± 0.67

**Q.** `CC1(O)CCOC(=O)C1` (stereo not given) [Prestw-750] was tested. Which “pThr231Tau/total Tau ratio Z-score” value did it give?
**A.** -0.339 ± 0.75

**Q.** Which “pThr231Tau/total Tau ratio Z-score” value does the source give for `Nc1ccc(S(=O)(=O)Nc2ccc(Cl)nn2)cc1` [Prestw-715] here?
**A.** 0.136 ± 1.2

**Q.** `CN(C)CCCOc1nn(Cc2ccccc2)c2ccccc12` [Prestw-297] was tested. Which “pThr231Tau/total Tau ratio Z-score” value did it give?
**A.** 0.68 ± 1.3

**Q.** Which “pThr231Tau/total Tau ratio Z-score” value does the source give for `OC[C@@H](O)[C@@H](O)[C@H](O)[C@@H](O)CO` [Sorbitol] here?
**A.** 1.09 ± 0.93

**Q.** With `OC[C@@H](O)[C@@H](O)[C@H](O)[C@@H](O)CO` [SORBITOL, sweetening agent and humectant] as the compound, how does the “pThr231Tau/total Tau ratio Z-score” value read?
**A.** 0.402 ± 0.53

**Q.** With `S=C=Nc1ccc(N=C=S)cc1` as the compound, how does the “pThr231Tau/total Tau ratio Z-score” value read?
**A.** 1.73 ± 1.3

**Q.** `C#C[C@]1(O)CC[C@H]2[C@@H]3[C@H](C)CC4=C(CCC(=O)C4)[C@H]3CC[C@@]21C` [Prestw-1181] was tested. Which “pThr231Tau/total Tau ratio Z-score” value did it give?
**A.** -0.746 ± 0.21

**Q.** Which “pThr231Tau/total Tau ratio Z-score” value does the source give for `CC(=O)OCC(=O)[C@@]1(O)CC[C@H]2[C@@H]3CCC4=CC(=O)C=C[C@]4(C)[C@@]3(F)[C@@H](O)C[C@@]21C` [Prestw-6] here?
**A.** 0.0317 ± 0.74

**Q.** Which “pThr231Tau/total Tau ratio Z-score” value does the source give for `COc1cc(C(=O)N2CCOCC2)cc(OC)c1OC` here?
**A.** 1.13 ± 0.027

**Q.** For `CC(=O)OCC(=O)[C@@]1(O)CC[C@H]2[C@@H]3CCC4=CC(=O)CC[C@]4(C)[C@H]3C(=O)C[C@@]21C` [CORTISONE ACETATE    Therap cat:  Glucocorticoid], which “pThr231Tau/total Tau ratio Z-score” value is on record?
**A.** 1.26 ± 1.3

**Q.** `CCC(=O)O[C@H]1[C@H](O[C@@H]2[C@@H](C)[C@H](O[C@H]3C[C@@](C)(OC)[C@@H](O)[C@H](C)O3)[C@@H](C)C(=O)O[C@H](CC)[C@@](C)(O)[C@H](O)[C@@H](C)C(=O)[C@H](C)C[C@@]2(C)O)O[C@H](C)C[C@@H]1N(C)C` was tested. Which “pThr231Tau/total Tau ratio Z-score” value did it give?
**A.** -1.35 ± 1.3

**Q.** Which “pThr231Tau/total Tau ratio Z-score” value does the source give for `CC(=O)Oc1cc(C(C)C)c(OCCN(C)C)cc1C` [Prestw-42] here?
**A.** -0.469 ± 1.1

**Q.** `O=C(O)c1cc(O)c2c(c1)[C@H]([C@H]1c3cc(C(=O)O)cc(O)c3C(=O)c3c(O[C@@H]4O[C@H](CO)[C@@H](O)[C@H](O)[C@H]4O)cccc31)c1cccc(O[C@@H]3O[C@H](CO)[C@@H](O)[C@H](O)[C@H]3O)c1C2=O` was tested. Which “pThr231Tau/total Tau ratio Z-score” value did it give?
**A.** 0.24 ± 1.7

**Q.** `CC(c1cc2ccccc2s1)N(O)C(N)=O` (stereo not given) [Prestw-1365] was tested. Which “pThr231Tau/total Tau ratio Z-score” value did it give?
**A.** -0.238 ± 0.52

**Q.** With `COc1cc(C)c(/C=C/C(C)=C/C=C/C(C)=C/C(=O)O)c(C)c1C` [Prestw-1165] as the compound, how does the “pThr231Tau/total Tau ratio Z-score” value read?
**A.** 0.576 ± 0.8

**Q.** With `CN(C)CCc1c[nH]c2ccc(C[C@H]3COC(=O)N3)cc12` [ZOLMITRIPTAN, antimigraine, 5HT[1B/1D] agonist] as the compound, how does the “pThr231Tau/total Tau ratio Z-score” value read?
**A.** -0.284 ± 0.57

**Q.** Which “pThr231Tau/total Tau ratio Z-score” value does the source give for `CN(C)CCC=C1c2ccccc2C=Cc2ccccc21` [Prestw-445] here?
**A.** -1.02 ± 0.48

**Q.** How did the “pThr231Tau/total Tau ratio Z-score” value turn out when `C[N+]1(C)CCC(=C(c2ccccc2)c2ccccc2)CC1` [Prestw-79] was run?
**A.** 2.02 ± 3

**Q.** With `NS(=O)(=O)c1cc2c(cc1Cl)NCNS2(=O)=O` [Prestw-9] as the compound, how does the “pThr231Tau/total Tau ratio Z-score” value read?
**A.** -0.536 ± 0.62

**Q.** For `Nc1ccc(C(=O)Oc2ccccc2)c(O)c1` [FENAMISAL    Therap cat: tuberculostatic], which “pThr231Tau/total Tau ratio Z-score” value is on record?
**A.** 0.418 ± 2.2

**Q.** `CNNCc1ccc(C(=O)NC(C)C)cc1` [Prestw-1112] was tested. Which “pThr231Tau/total Tau ratio Z-score” value did it give?
**A.** 0.225 ± 0.31
